The values below come from the supplement of paper PMC10849652.

By UniProt entry, the sequences of proteins in these tests, tags left out. Where a name states a change or a piece, a line headed by the entry shows the natural chain unless it says otherwise.
UniProt O15151: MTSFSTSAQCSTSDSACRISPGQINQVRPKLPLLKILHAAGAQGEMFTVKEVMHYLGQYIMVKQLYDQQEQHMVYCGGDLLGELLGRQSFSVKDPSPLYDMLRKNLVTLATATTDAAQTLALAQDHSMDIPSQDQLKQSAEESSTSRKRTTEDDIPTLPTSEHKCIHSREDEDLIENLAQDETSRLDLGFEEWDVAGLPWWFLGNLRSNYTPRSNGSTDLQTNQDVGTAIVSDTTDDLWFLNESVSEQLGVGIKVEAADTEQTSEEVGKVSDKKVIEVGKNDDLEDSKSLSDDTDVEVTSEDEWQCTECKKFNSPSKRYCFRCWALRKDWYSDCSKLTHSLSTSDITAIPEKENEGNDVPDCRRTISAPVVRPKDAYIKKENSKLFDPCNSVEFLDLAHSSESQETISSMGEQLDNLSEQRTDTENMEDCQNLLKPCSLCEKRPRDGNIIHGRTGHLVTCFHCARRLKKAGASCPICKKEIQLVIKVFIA
UniProt Q71SY5: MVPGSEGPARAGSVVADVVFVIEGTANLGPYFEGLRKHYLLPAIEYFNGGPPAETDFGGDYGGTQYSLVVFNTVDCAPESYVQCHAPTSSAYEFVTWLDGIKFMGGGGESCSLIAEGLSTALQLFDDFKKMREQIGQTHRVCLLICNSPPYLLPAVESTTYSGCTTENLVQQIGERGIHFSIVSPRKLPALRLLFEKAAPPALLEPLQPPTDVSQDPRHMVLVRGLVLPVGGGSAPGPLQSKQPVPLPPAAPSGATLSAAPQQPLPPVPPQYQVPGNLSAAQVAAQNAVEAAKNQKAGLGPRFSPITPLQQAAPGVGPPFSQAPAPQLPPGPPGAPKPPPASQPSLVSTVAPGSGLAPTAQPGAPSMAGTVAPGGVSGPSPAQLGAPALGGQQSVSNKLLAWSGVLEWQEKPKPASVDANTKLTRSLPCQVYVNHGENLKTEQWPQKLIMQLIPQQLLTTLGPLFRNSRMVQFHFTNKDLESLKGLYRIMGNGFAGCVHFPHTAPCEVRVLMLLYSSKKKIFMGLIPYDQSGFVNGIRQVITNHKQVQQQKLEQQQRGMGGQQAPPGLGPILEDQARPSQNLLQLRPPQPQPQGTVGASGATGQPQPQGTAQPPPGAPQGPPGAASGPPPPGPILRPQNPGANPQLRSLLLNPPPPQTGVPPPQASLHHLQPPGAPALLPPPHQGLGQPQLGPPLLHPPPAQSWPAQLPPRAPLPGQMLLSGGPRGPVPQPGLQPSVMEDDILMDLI
UniProt Q9NWA0: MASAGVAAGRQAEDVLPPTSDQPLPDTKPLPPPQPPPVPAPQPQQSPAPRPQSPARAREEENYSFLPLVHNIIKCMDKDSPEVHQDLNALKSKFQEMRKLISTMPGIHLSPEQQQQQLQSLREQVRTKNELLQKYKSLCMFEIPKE
UniProt A4D2B0: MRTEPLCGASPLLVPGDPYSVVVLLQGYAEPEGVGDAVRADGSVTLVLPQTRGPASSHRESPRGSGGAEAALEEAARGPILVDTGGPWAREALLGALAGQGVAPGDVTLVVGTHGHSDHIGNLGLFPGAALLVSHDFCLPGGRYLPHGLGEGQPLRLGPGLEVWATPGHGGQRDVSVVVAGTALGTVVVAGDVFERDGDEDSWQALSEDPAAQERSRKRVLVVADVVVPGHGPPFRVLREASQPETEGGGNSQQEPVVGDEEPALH
UniProt Q7Z7M0: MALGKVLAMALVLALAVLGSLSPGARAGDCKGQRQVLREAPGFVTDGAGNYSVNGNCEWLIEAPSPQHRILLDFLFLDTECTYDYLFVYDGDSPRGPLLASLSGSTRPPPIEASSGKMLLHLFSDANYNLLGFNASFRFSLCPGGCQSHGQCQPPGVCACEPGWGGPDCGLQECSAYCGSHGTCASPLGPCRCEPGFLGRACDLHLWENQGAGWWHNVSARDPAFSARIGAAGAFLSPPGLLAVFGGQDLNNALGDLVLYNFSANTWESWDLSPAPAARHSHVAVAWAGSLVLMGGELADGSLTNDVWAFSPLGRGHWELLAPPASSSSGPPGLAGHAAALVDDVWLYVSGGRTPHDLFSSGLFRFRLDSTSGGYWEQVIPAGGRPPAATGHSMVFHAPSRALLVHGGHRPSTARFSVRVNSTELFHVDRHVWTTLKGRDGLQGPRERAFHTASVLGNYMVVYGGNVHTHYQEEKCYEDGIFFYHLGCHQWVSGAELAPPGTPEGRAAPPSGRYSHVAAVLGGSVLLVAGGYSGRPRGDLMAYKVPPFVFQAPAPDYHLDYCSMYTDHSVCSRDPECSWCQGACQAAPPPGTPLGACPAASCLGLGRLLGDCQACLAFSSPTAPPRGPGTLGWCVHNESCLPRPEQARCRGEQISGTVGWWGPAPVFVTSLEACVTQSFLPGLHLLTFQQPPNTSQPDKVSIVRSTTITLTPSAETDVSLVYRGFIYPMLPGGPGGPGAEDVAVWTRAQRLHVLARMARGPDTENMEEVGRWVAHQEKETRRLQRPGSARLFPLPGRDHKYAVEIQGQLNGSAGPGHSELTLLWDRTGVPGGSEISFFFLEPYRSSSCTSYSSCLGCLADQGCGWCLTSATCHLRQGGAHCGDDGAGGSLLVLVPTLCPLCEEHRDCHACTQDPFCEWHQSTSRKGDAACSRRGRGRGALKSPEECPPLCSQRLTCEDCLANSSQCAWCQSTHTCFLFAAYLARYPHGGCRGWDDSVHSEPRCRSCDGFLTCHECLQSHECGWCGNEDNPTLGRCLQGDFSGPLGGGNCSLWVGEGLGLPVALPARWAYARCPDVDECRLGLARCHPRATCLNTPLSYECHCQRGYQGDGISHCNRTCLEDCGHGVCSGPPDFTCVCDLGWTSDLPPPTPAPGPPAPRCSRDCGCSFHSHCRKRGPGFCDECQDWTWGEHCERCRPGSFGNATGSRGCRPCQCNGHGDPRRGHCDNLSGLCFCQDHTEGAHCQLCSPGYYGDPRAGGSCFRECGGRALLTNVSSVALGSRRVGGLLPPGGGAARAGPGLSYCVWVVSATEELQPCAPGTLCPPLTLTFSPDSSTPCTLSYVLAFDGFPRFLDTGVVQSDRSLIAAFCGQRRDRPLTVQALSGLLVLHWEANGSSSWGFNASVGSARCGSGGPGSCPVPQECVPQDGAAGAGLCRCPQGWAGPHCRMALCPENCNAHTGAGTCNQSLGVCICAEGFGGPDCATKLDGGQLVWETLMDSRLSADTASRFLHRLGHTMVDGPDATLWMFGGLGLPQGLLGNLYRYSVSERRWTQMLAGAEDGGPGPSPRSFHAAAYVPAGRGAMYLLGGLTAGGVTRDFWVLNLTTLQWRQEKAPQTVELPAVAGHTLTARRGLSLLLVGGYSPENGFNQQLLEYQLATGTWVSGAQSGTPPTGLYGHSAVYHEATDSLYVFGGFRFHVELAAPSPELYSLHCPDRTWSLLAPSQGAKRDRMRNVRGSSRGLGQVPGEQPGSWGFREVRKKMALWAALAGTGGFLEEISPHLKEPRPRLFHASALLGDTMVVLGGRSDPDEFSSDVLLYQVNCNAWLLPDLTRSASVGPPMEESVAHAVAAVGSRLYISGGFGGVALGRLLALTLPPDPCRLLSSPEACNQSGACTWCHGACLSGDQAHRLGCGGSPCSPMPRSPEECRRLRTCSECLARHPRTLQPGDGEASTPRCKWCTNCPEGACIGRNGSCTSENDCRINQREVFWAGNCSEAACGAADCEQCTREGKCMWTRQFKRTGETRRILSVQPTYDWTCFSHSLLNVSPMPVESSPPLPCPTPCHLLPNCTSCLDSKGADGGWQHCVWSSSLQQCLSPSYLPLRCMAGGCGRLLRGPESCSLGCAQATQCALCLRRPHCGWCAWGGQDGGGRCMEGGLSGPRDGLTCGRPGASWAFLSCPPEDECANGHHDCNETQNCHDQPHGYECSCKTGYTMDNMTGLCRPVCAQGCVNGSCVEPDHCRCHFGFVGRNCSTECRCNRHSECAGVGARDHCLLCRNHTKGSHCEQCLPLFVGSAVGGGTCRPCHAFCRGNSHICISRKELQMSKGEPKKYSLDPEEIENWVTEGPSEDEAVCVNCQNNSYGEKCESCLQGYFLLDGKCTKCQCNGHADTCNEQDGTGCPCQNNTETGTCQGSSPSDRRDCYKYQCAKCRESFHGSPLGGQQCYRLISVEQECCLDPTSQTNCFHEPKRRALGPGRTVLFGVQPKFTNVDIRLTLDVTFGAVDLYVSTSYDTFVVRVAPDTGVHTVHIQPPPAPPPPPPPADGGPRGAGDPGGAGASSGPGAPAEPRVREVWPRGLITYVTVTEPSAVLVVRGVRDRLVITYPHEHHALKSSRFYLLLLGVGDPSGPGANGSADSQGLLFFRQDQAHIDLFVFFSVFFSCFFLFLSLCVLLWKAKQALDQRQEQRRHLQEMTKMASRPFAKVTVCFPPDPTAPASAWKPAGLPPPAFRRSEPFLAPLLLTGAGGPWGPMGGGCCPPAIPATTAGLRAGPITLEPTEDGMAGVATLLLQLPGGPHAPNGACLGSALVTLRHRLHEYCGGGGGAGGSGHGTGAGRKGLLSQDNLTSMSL
UniProt O43934: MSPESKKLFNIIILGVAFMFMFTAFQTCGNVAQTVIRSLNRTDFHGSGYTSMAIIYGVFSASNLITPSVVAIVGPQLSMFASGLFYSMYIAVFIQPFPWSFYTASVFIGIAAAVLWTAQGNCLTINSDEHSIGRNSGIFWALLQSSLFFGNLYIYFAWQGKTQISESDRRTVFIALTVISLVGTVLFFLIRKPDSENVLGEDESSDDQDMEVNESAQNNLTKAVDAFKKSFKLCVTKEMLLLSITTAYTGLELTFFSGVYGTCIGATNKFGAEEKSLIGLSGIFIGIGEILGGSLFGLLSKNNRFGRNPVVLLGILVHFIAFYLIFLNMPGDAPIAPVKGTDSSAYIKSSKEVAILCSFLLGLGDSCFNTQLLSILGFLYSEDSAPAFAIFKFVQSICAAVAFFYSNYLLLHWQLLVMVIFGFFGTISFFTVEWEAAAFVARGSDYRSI
UniProt Q8NBP5: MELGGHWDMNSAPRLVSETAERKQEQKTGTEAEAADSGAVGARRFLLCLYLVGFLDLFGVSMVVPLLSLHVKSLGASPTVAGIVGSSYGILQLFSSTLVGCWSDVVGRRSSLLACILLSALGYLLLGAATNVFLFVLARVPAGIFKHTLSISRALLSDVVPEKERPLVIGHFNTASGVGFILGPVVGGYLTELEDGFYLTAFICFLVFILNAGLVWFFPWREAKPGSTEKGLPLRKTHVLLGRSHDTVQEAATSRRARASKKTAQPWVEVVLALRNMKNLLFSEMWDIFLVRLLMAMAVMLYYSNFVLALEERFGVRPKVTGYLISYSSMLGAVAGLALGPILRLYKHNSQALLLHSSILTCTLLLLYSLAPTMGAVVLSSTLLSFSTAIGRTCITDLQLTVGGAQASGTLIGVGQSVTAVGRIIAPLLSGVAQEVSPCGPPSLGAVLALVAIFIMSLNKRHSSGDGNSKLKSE
UniProt Q9Y3C7: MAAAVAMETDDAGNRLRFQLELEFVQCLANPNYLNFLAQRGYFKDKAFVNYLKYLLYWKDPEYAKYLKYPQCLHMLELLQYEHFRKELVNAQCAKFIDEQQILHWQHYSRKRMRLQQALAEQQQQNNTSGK
UniProt Q5VZF2: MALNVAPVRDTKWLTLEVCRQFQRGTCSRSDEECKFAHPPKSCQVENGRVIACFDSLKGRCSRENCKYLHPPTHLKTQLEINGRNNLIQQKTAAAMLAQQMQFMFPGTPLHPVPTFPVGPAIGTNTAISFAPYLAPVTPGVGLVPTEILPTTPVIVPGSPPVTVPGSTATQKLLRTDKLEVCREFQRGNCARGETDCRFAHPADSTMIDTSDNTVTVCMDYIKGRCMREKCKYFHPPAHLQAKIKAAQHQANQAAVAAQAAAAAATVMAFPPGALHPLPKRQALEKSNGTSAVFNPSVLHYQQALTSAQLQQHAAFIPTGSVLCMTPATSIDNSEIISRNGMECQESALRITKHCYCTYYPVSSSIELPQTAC
UniProt Q9NWR8: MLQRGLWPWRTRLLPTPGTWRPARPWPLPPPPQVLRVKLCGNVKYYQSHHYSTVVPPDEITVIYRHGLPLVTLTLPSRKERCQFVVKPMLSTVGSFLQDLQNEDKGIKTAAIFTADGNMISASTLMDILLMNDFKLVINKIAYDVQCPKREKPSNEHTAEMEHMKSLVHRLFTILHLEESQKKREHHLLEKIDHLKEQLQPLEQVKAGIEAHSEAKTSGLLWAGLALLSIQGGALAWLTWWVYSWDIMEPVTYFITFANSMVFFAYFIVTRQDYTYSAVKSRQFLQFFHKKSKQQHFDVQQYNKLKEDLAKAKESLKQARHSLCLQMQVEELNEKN
UniProt Q9H1A3: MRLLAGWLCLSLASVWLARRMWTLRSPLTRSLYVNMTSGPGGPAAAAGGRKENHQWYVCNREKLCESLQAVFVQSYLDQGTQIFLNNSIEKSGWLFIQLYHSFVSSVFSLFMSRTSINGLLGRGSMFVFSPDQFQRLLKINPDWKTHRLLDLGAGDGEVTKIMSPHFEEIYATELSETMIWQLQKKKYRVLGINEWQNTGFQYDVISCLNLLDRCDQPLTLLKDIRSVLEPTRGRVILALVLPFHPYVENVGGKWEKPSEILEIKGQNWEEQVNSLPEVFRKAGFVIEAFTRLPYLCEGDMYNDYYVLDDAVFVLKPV

Some of the results follow.

Holding throughout (assay): log2 fold change, soluble protein after heating vs DMSO (PISA); higher = thermal stabilisation; K562 lysate, 10 uM; active = over 0.2 and 3.5 SD of the protein, either way, in both replicates (recomputed)
Compound in experiment [1]: Cc1sc2c(c1C)C(c1ccc(Cl)cc1)=N[C@@H](CC(=O)OC(C)(C)C)c1nnc(C)n1-2
Summed up: (§1)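 Values give the log-two fold change in thermal stability against solvent controls, from duplicates. Crude K562 extract at 1 mg/mL protein, made by dounce homogenisation in PBS pH 7.4 with 1 mM MgCl2, was treated with 10 μM compound for 30 min. After 3 min heating across 48°C-58°C, aliquots were pooled, adjusted to 0.5% NP-40 at 4°C and centrifuged at 21,000xg for 90 min. The supernatant was measured by TMTpro 16plex LC-MS/MS with channel sums equalised.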

Compound in experiment [2]: c1ccc([C@@H]2C[C@H]2NC2CCNCC2)cc1
An outline of the steps:
as §1

Compound in experiment [3]: CC1=C2C(=CC=C1)N=C(N(C2=O)C3=CC=CC=C3C)CN4C=NC5=C(N=CN=C54)N
An outline of the steps:
as §1

Compound in experiment [4]: C1=CC=C(C=C1)[C@H](COC2=CC3=C(C=C2)NC(=O)N3)NC(=O)C4=CC=CN(C4=O)CC5=CC(=C(C=C5)F)F
An outline of the steps:
as §1

Compound in experiment [5]: CC1=C(SC2=C1C(=N[C@H](C3=NN=C(N32)C)CC(=O)N)C4=CC=C(C=C4)Cl)C
Summed up:
as §1

Regarding MED28 (UniProt Q9H204), the log2 fold change in experiment [1] is inactive: -0.032; in experiment [2], inactive: 0.018.
As for METAP2 isoform 2 (UniProt P50579), the log2 fold change in experiment [2] was inactive: -0.057.
For MDK (UniProt P21741), the log2 fold change in experiment [1] was inactive: -0.103; in experiment [2] it was inactive: 0.245.
Turning to MBD6 (UniProt Q96DN6), the log2 fold change in experiment [1] is inactive: -0.174.
For MDM4 (UniProt O15151), the log2 fold change in experiment [3] was inactive: -0.097; in experiment [1] it was inactive: -0.186; in experiment [2], inactive: 0.028.
On to MED25 isoform 3 (UniProt Q71SY5), for which the log2 fold change in experiment [4] is inactive: -0.069; in experiment [5], inactive: 0.026; in experiment [1] it was inactive: 0.01; in experiment [2] it was inactive: 0.052.
As for MEX3A (UniProt A1L020), the log2 fold change is inactive: 0.15 in experiment [3] and inactive: -0.073 in experiment [1].
On to MED9 (UniProt Q9NWA0), for which the log2 fold change in experiment [1] was inactive: -0.098; in experiment [2], inactive: 0.106.
Take MEF2C isoform 2 (UniProt Q06413): the log2 fold change is inactive: 0.052 in experiment [3], inactive: -0.066 in experiment [1] and inactive: -0.075 in experiment [2].
For the target MELK (UniProt Q14680), the log2 fold change in experiment [3] is inactive: 0.13; in experiment [1], inactive: -0.089; in experiment [2], inactive: -0.046.
For the target MEN1 (UniProt O00255), the results for the log2 fold change in experiment [3] and in experiment [1] were inactive: 0.039 and inactive: -0.118, respectively.
For the target MBLAC1 (UniProt A4D2B0), the log2 fold change in experiment [3] is inactive: 0.17; in experiment [2], inactive: -0.066.
Consider MFSD4B (UniProt Q5TF39), for which the log2 fold change is inactive: 0.056 in experiment [4], inactive: -0.428 in experiment [5], inactive: 0.043 in experiment [1] and inactive: -0.041 in experiment [2].
For MEGF8 (UniProt Q7Z7M0), in that order: inactive: 0.023, inactive: -0.022, inactive: 0.116 and inactive: 0.1.
Turning to MFSD11 (UniProt O43934), the log2 fold change in experiment [4] was inactive: 0.114; in experiment [5], inactive: 0.003; in experiment [2] it was inactive: -0.088.
As to MFSD9 (UniProt Q8NBP5), in experiment [1], the log2 fold change is inactive: -0.099.
On to METTL2B (UniProt Q6P1Q9), for which the log2 fold change in experiment [4] was inactive: -0.065; in experiment [5], inactive: 0.044; in experiment [1], inactive: -0.135; in experiment [2], inactive: 0.104.
As to MEIOB isoform 2 (UniProt Q8N635), the log2 fold change was inactive: 0.118 in experiment [1] and inactive: 0.03 in experiment [2].
With MCTS2P, A0A3B3IRV3, in experiment [1], the log2 fold change was inactive: -0.2.
As for MED31 (UniProt Q9Y3C7), the log2 fold change was inactive: 0.027 in experiment [4], inactive: 0.019 in experiment [5], inactive: 0.029 in experiment [1] and inactive: -0.029 in experiment [2].
For METTL23 (UniProt Q86XA0), the log2 fold change in experiment [3] was inactive: -0.086.
Regarding MBNL2 (UniProt Q5VZF2), the log2 fold change is inactive: -0.005 in experiment [3] and inactive: 0.055 in experiment [2].
For MFSD6 (UniProt Q6ZSS7), the log2 fold change is inactive: 0.057 in experiment [4], inactive: -0.082 in experiment [5], inactive: 0.032 in experiment [1] and inactive: 0.043 in experiment [2].
For the target MED29 (UniProt Q9NX70), the log2 fold change in experiment [1] is inactive: -0.315; in experiment [2], inactive: 0.043.
For MATK isoform 2 (UniProt P42679), in experiment [2], the log2 fold change is inactive: 0.076.
For the target MEX3B (UniProt Q6ZN04), the log2 fold change in experiment [4] is inactive: 0.015; in experiment [5] it was inactive: 0.121; in experiment [1], inactive: -0.198; in experiment [2] it was inactive: 0.109.
For the target METTL21A (UniProt Q8WXB1), the log2 fold change was inactive: 0.048 in experiment [4], inactive: -0.069 in experiment [5], inactive: -0.068 in experiment [1] and inactive: 0 in experiment [2].
With MCPH1 (UniProt Q8NEM0), the log2 fold change in experiment [2] was inactive: -0.002.
For MCUB (UniProt Q9NWR8), the log2 fold change in experiment [4] is inactive: 0.097; in experiment [5], inactive: -0.171; in experiment [1] it was inactive: 0.044; in experiment [2], inactive: 0.205.
As for METTL15 (UniProt A6NJ78), the log2 fold change in experiment [3] was inactive: -0.128.
For MEIS1 (UniProt O00470), the figures for the log2 fold change in experiment [4], in experiment [5] and in experiment [2] were inactive: -0.079, inactive: 0.005 and inactive: -0.316, respectively.
With MBD4 (UniProt O95243), the log2 fold change in experiment [1] was inactive: 0.043; in experiment [2], inactive: -0.068.
Consider MFSD12 isoform 3 (UniProt Q6NUT3), for which the values for the log2 fold change in experiment [3], in experiment [1] and in experiment [2] were inactive: 0.013, inactive: -0.021 and inactive: -0.042, respectively.
METTL9 (UniProt Q9H1A3): the log2 fold change in experiment [4] is inactive: 0.058; in experiment [5], inactive: 0.014; in experiment [1], inactive: 0.088; in experiment [2] it was inactive: -0.12.
